The list shows a part of the results. The main result of the screen is listed elsewhere. These columns were measured beside it and carry no call. The list favours compounds with an active or inconclusive main result. Words in brackets tell the shape of the fitted curve; partial curves, single points and poor fits give uncertain potencies.
Test: IkB Signaling
Conditions: ABC-DLBCL IkBa-CBG/CBR dual luciferase ratio (green luciferase fused to IkBa over red control in OCI-Ly3 lymphoma cells), 4 h
Outline: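 Luminescence ratio of IκBα-fused green versus native red beetle luciferase in OCI-Ly3 cells, 4 h post-doxycycline with compound; red signal alone, scaled from basal (0%) to zero light (-100%), flagged nonspecific or cytotoxic effects.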

[1] = measured here: control luc red channel unless noted

SMILES: O=C1N(Cc2ccccc2)c2ccccc2C1(O)c1c[nH]c2ccccc12 (centres undefined)
- AC50 [1]: 15.8 µM [falling, partial curve]

SMILES: CCc1cccc(NC(=O)c2c(C)oc3nc(C)nc(N4CCCC4)c23)c1
- AC50 [1]: 39.8 µM [falling, single point]

SMILES: COC(=O)C1CCN(c2csc3ccc(Cl)cc3c2=O)CC1
- AC50 [1]: 7.94 µM [falling, partial curve]

SMILES: O=C(NCCCO)c1nn(-c2ccc(Cl)cc2)nc1CO
- AC50 [1]: 0.00794 µM [rising, full curve, poor fit]

SMILES: CCc1ccc(OCc2cc(=O)n3cc(C)sc3n2)cc1
- AC50 [1]: 0.0794 µM [rising, full curve]

SMILES: CCOc1ccc2oc(=O)cc(CN3CCN(c4ccccc4OC)CC3)c2c1
- AC50 [1]: 31.6 µM [falling, partial curve]

SMILES: COc1cccc(NC(=O)Cn2c(=O)n(CCc3ccc(OC)c(OC)c3)c(=O)c3ccccc32)c1
- AC50 [1]: 0.2 µM [falling, full curve, poor fit]

SMILES: Cc1ccc(-c2cc(C(F)F)nc(NCc3cccnc3)n2)cc1
- AC50 [1]: 20 µM [falling, partial curve]

SMILES: COc1cc(COc2cc(N)c(Cl)cc2C(=O)CCC2CCN(CCNS(C)(=O)=O)CC2)cc(OC)c1
- AC50 [1]: 39.8 µM [falling, partial curve]

SMILES: Cc1ccc(-c2nnn(CC(=O)N(CC(=O)NCc3ccccc3)c3cccc(C)c3C)n2)o1
- AC50 [1]: 31.6 µM [falling, partial curve]

SMILES: COc1ccc(C(=O)N(Cc2cc(OC)c(OC)c(OC)c2)C2CCS(=O)(=O)C2)cc1Cl (centres undefined)
- AC50 [1]: 3.98 µM [rising, partial curve]

SMILES: CCCCOC(=O)c1ccc(Nc2ncnc3c2cnn3-c2cccc(C)c2)cc1
- AC50 [1]: 1 µM [falling, partial curve]

SMILES: COc1ccc(-c2nc(S(=O)(=O)c3ccc(C)cc3)c(N3CCCCC3)o2)cc1
- AC50 [1]: 25.1 µM [falling, partial curve, poor fit]

SMILES: Cc1ccc(CNC(=O)CN2C(=O)CC(c3ccc(C)c(C)c3)=Nc3ccccc32)cc1
- AC50 [1]: 31.6 µM [falling, partial curve]

SMILES: CCCn1c(CN(C)Cc2ccccc2)nc2c1c(=O)n(C)c(=O)n2C
- AC50 [1]: 15.8 µM [falling, partial curve]

SMILES: Cc1cccc(CN2CCC(CNc3ncnc4onc(-c5ccc(Cl)cc5)c34)CC2)c1
- AC50 [1]: 20 µM [falling, single point]

SMILES: Clc1cccc(-n2cc(-c3ccccc3)c3c(NC4CCCC4)ncnc32)c1
- AC50 [1]: 12.6 µM [falling, partial curve]

SMILES: COc1ccccc1NC(=O)CSc1nc2c(oc3ccccc32)c(=O)n1Cc1ccco1
- AC50 [1]: 10 µM [falling, partial curve]

SMILES: O=C(NCc1cccc(Cl)c1)NCc1noc2ccccc12
- AC50 [1]: 0.794 µM [rising, full curve]

SMILES: COc1cccc(N2CCN(c3ncnc4c3c(-c3ccccc3)cn4-c3ccc(F)cc3)CC2)c1
- AC50 [1]: 25.1 µM [falling, partial curve]

SMILES: CCCCN(CC)C(=O)CCCn1c(=O)c2cccn2c2ccccc21
- AC50 [1]: 25.1 µM [falling, single point]

SMILES: CCOC(=O)c1cnc(N2CCN(c3ccc(OC)cc3)CC2)c2ccccc12
- AC50 [1]: 31.6 µM [falling, single point]

SMILES: O=C(NCC(c1cccnc1)N1CCN(c2ccc(F)cc2)CC1)c1cccc(Cl)c1 (centres undefined)
- AC50 [1]: 12.6 µM [falling, partial curve]

SMILES: CCN1CCN(c2ncnc3c2cnn3-c2cc(Cl)ccc2C)CC1
- AC50 [1]: 25.1 µM [falling, partial curve]

SMILES: CCOC(=O)c1c(S(=O)(=O)NCC(=O)N(C)Cc2ccccc2)c(C)n(C)c1C
- AC50 [1]: 25.1 µM [rising, partial curve, poor fit]

SMILES: CC(C)c1ccc(-c2noc(C3CCCN(C(=O)c4ccc(F)cc4F)C3)n2)cc1 (centres undefined)
- AC50 [1]: 25.1 µM [falling, single point]

SMILES: O=C(Cn1nc(-c2ccc(Cl)cc2)ccc1=O)NCCc1ccccc1
- AC50 [1]: 25.1 µM [falling, partial curve]

SMILES: CCOC(=O)c1c(-c2ccccc2)nnn1-c1nc(OCC)nc(N2CCCCC2)n1
- AC50 [1]: 12.6 µM [falling, partial curve]

SMILES: CCCc1[nH]nc2c1C(c1ccc(Br)s1)C(C#N)=C(N)O2 (centres undefined)
- AC50 [1]: 15.8 µM [falling, partial curve]

SMILES: Cc1ccc(-c2cc(C(=O)OCC(=O)Nc3cc(C)on3)c3ccccc3n2)c(C)c1
- AC50 [1]: 25.1 µM [falling, partial curve, poor fit]

SMILES: NC(=O)C1CCN(c2nc(C3CC3)nc3c2nnn3Cc2ccccc2)CC1
- AC50 [1]: 1.58 µM [rising, partial curve]

SMILES: O=C(COc1ccccc1)OCc1cc(=O)n2nc(-c3cccs3)sc2n1
- AC50 [1]: 0.398 µM [falling, full curve, poor fit]

SMILES: Cc1ccccc1NC(=O)c1ccc(N(Cc2ccccc2)S(C)(=O)=O)cc1
- AC50 [1]: 15.8 µM [falling, partial curve]

SMILES: CC(C)(C)OC(=O)N1CCC(c2c(C(=O)Nc3ccc4c(c3)OCO4)cnn2-c2ccccc2)CC1
- AC50 [1]: 31.6 µM [falling, single point]

SMILES: O=C(NCc1ccc2c(c1)CCN2C(=O)c1ccncc1)c1ccccc1F
- AC50 [1]: 3.16 µM [rising, partial curve]

SMILES: COC(=O)c1ccccc1NC(=O)CCS(=O)(=O)c1nc(-c2ccc3c(c2)OCO3)cc(C(F)(F)F)n1
- AC50 (measured here: IkB-luc green channel): 5.01 µM [rising, single point]
- AC50 (measured here: control luc red channel): 5.01 µM [falling, partial curve]

SMILES: CCOCCCn1c(=N)c(S(=O)(=O)c2ccc(Cl)cc2)cc2c(=O)n3cccc(C)c3nc21
- AC50 [1]: 39.8 µM [falling, single point]

SMILES: COc1ccccc1CNc1ncnc2c1nnn2C
- AC50 [1]: 3.16 µM [falling, single point]

SMILES: COC(=O)c1c(-c2cccs2)csc1NC(=O)c1ccc(C(C)C)cc1
- AC50 [1]: 39.8 µM [falling, single point]

SMILES: Cc1ccc(NC(=O)CCS(=O)(=O)c2ccc3c(c2)oc(=O)n3C)c(Br)c1
- AC50 [1]: 39.8 µM [falling, single point]

SMILES: Cc1ccc2nc(COc3cccc(NC(=O)COc4ccc(F)cc4)c3)cc(=O)n2c1
- AC50 [1]: 0.126 µM [falling, full curve]

SMILES: COc1ccc(NC(=O)c2cc3c(C)nn(-c4ccccc4)c3s2)c(OC)c1
- AC50 [1]: 12.6 µM [falling, partial curve]

SMILES: COc1ccc(-c2nc(CSCC(=O)N3CCN(c4ccccc4)CC3)c(C)o2)cc1
- AC50 [1]: 12.6 µM [falling, partial curve]

SMILES: COc1ccc(N2CCN(C(=O)CSCc3ccc(C)cc3)CC2)cc1
- AC50 [1]: 3.16 µM [rising, single point]

SMILES: CC(=O)c1cccc(NS(=O)(=O)c2cccc(S(=O)(=O)c3ccc(Br)cc3)c2)c1
- AC50 [1]: 25.1 µM [falling, partial curve]

SMILES: Cc1sc2ncnc(Oc3ccc(-n4ccnc4)cc3)c2c1C
- AC50 [1]: 31.6 µM [falling, partial curve]

SMILES: CCOC(=O)c1sc2cccc(F)c2c1N
- AC50 [1]: 15.8 µM [rising, partial curve]

SMILES: CCOC(=O)c1ccc(NC(=O)CCc2nc3cccnc3n2Cc2cccs2)cc1
- AC50 [1]: 39.8 µM [falling, partial curve]

SMILES: O=C(Nc1ccc(O)cc1)c1ccc(C(=O)c2ccccc2)o1
- AC50 [1]: 2.51 µM [falling, full curve]

SMILES: Cc1cccc(NC(=O)/C(C#N)=C/c2ccc(C)o2)c1
- AC50 [1]: 10 µM [falling, partial curve]

SMILES: Cc1ccc(S(=O)(=O)c2cn(CC(=O)Nc3ccc(Cl)cc3)c3ccc(F)cc3c2=O)cc1C
- AC50 [1]: 0.158 µM [falling, full curve]

SMILES: CCOC(=O)c1c(NC(=O)c2cc(CC)on2)sc(C(C)=O)c1C
- AC50 [1]: 1 µM [rising, full curve, poor fit]

SMILES: CCC(=O)Nc1cccc(-c2nc3cc(C)ccc3o2)c1
- AC50 [1]: 0.794 µM [rising, partial curve]

SMILES: Cc1ccc2c(c1)nnn2C1CCN(S(=O)(=O)c2ccc(C(=O)N3C(C)CCCC3C)cc2)CC1 (centres undefined)
- AC50 [1]: 12.6 µM [falling, partial curve]

SMILES: CSc1ccc(CCNC(=O)c2c(C)oc3ncn(C)c(=O)c23)cc1
- AC50 [1]: 31.6 µM [falling, single point]

SMILES: Cc1cccc(Cn2c(Cc3ccccc3)nc3ccccc32)c1
- AC50 [1]: 31.6 µM [falling, single point]

SMILES: O=C(CN1c2ccccc2S(=O)(=O)c2ccccc21)Nc1cccc(C(F)(F)F)c1
- AC50 [1]: 31.6 µM [falling, single point]

SMILES: COc1ccc(CCN2CCC(CNC(=O)c3cnn(-c4cccc(Cl)c4)c3C3CCN(C(=O)OC(C)(C)C)CC3)CC2)cc1
- AC50 [1]: 39.8 µM [falling, single point]

SMILES: O=C(NCc1ccc(F)cc1)c1ccc2oc(=O)n(Cc3ccccc3)c2c1
- AC50 [1]: 31.6 µM [falling, partial curve]

SMILES: COc1ccccc1NC(=O)C(=O)NCC(c1cccnc1)N1CCc2ccccc2C1 (centres undefined)
- AC50 [1]: 12.6 µM [falling, partial curve]

SMILES: Oc1c(C(c2cccs2)N2CCOCC2)sc2ncnn12 (centres undefined)
- AC50 [1]: 0.501 µM [rising, full curve]

SMILES: COC(=O)c1ccc(NC(=O)CCc2c(C)nn(-c3ccc(N4CCCCC4)nn3)c2C)cc1
- AC50 [1]: 20 µM [falling, partial curve]

SMILES: COc1ccc(-n2nc(C(=O)Nc3cc(C)ccn3)c3c4ccccc4n(C)c3c2=O)cc1Cl
- AC50 [1]: 31.6 µM [rising, partial curve]
